These are yes or no findings as the source states them, for the method shown. Binding seen in cells or lysates may run through a third protein. A yes stands for co-enrichment or nearness to the bait. Other partners may have been found.
B1: neurofilament light chain (protein, UniProt P07196 1-543)
chain: MSSFSYEPYYSTSYKRRYVETPRVHISSVRSGYSTARSAYSSYSAPVSSSLSVRRSYSSSSGSLMPSLENLDLSQVAAISNDLKSIRTQEKAQLQDLNDRFASFIERVHELEQQNKVLEAELLVLRQKHSEPSRFRALYEQEIRDLRLAAEDATNEKQALQGEREGLEETLRNLQARYEEEVLSREDAEGRLMEARKGADEAALARAELEKRIDSLMDEISFLKKVHEEEIAELQAQIQYAQISVEMDVTKPDLSAALKDIRAQYEKLAAKNMQNAEEWFKSRFTVLTESAAKNTDAVRAAKDEVSESRRLLKAKTLEIEACRGMNEALEKQLQELEDKQNADISAMQDTINKLENELRTTKSEMARYLKEYQDLLNVKMALDIEIAAYRKLLEGEETRLSFTSVGSITSGYSQSSQVFGRSAYGGLQTSSYLMSTRSFPSYYTSHVQEEQIEVEETIEAAKAEEAKDEPPSEGEAEEEEKDKEEAEEEEAAEEEEAAKEESEEAKEEEEGGEGEEGEETKEAEEEEKKVEGAGEEQAAKKKD
B2: neurofilament heavy chain (protein, UniProt P12036 1-1020)
chain: MMSFGGADALLGAPFAPLHGGGSLHYALARKGGAGGTRSAAGSSSGFHSWTRTSVSSVSASPSRFRGAGAASSTDSLDTLSNGPEGCMVAVATSRSEKEQLQALNDRFAGYIDKVRQLEAHNRSLEGEAAALRQQQAGRSAMGELYEREVREMRGAVLRLGAARGQLRLEQEHLLEDIAHVRQRLDDEARQREEAEAAARALARFAQEAEAARVDLQKKAQALQEECGYLRRHHQEEVGELLGQIQGSGAAQAQMQAETRDALKCDVTSALREIRAQLEGHAVQSTLQSEEWFRVRLDRLSEAAKVNTDAMRSAQEEITEYRRQLQARTTELEALKSTKDSLERQRSELEDRHQADIASYQEAIQQLDAELRNTKWEMAAQLREYQDLLNVKMALDIEIAAYRKLLEGEECRIGFGPIPFSLPEGLPKIPSVSTHIKVKSEEKIKVVEKSEKETVIVEEQTEETQVTEEVTEEEEKEAKEEEGKEEEGGEEEEAEGGEEETKSPPAEEAASPEKEAKSPVKEEAKSPAEAKSPEKEEAKSPAEVKSPEKAKSPAKEEAKSPPEAKSPEKEEAKSPAEVKSPEKAKSPAKEEAKSPAEAKSPEKAKSPVKEEAKSPAEAKSPVKEEAKSPAEVKSPEKAKSPTKEEAKSPEKAKSPEKEEAKSPEKAKSPVKAEAKSPEKAKSPVKAEAKSPEKAKSPVKEEAKSPEKAKSPVKEEAKSPEKAKSPVKEEAKTPEKAKSPVKEEAKSPEKAKSPEKAKTLDVKSPEAKTPAKEEARSPADKFPEKAKSPVKEEVKSPEKAKSPLKEDAKAPEKEIPKKEEVKSPVKEEEKPQEVKVKEPPKKAEEEKAPATPKTEEKKDSKKEEAPKKEAPKPKVEEKKEPAVEKPKESKVEAKKEEAEDKKKVPTPEKEAPAKVEVKEDAKPKEKTEVAKKEPDDAKAKEPSKPAEKKEAAPEKKDTKEEKAKKPEEKPKTEAKAKEDDKTLSKEPSKPKAEKAEKSSSTDQKDSKPPEKATEDKAAKGK
B3: β-SNAB (protein, UniProt Q9H115 1-298)
chain: MDNAGKEREAVQLMAEAEKRVKASHSFLRGLFGGNTRIEEACEMYTRAANMFKMAKNWSAAGNAFCQAAKLHMQLQSKHDSATSFVDAGNAYKKADPQEAINCLNAAIDIYTDMGRFTIAAKHHITIAEIYETELVDIEKAIAHYEQSADYYKGEESNSSANKCLLKVAAYAAQLEQYQKAIEIYEQVGANTMDNPLLKYSAKDYFFKAALCHFIVDELNAKLALEKYEEMFPAFTDSRECKLLKKLLEAHEEQNSEAYTEAVKEFDSISRLDQWLTTMLLRIKKSIQGDGEGDGDLK
B4: contactin 1 (protein, UniProt Q12860 21-993)
chain: EFTWYRRYGHGVSEEDKGFGPIFEEQPINTIYPEESLEGKVSLNCRARASPFPVYKWRMNNGDVDLTSDRYSMVGGNLVINNPDKQKDAGIYYCLASNNYGMVRSTEATLSFGYLDPFPPEERPEVRVKEGKGMVLLCDPPYHFPDDLSYRWLLNEFPVFITMDKRRFVSQTNGNLYIANVEASDKGNYSCFVSSPSITKSVFSKFIPLIPIPERTTKPYPADIVVQFKDVYALMGQNVTLECFALGNPVPDIRWRKVLEPMPSTAEISTSGAVLKIFNIQLEDEGIYECEAENIRGKDKHQARIYVQAFPEWVEHINDTEVDIGSDLYWPCVATGKPIPTIRWLKNGYAYHKGELRLYDVTFENAGMYQCIAENTYGAIYANAELKILALAPTFEMNPMKKKILAAKGGRVIIECKPKAAPKPKFSWSKGTEWLVNSSRILIWEDGSLEINNITRNDGGIYTCFAENNRGKANSTGTLVITDPTRIILAPINADITVGENATMQCAASFDPALDLTFVWSFNGYVIDFNKENIHYQRNFMLDSNGELLIRNAQLKHAGRYTCTAQTIVDNSSASADLVVRGPPGPPGGLRIEDIRATSVALTWSRGSDNHSPISKYTIQTKTILSDDWKDAKTDPPIIEGNMEAARAVDLIPWMEYEFRVVATNTLGRGEPSIPSNRIKTDGAAPNVAPSDVGGGGGRNRELTITWAPLSREYHYGNNFGYIVAFKPFDGEEWKKVTVTNPDTGRYVHKDETMSPSTAFQVKVKAFNNKGDGPYSLVAVINSAQDAPSEAPTEVGVKVLSSSEISVHWEHVLEKIVESYQIRYWAAHDKEEAANRVQVTSQEYSARLENLLPDTQYFIEVGACNSAGCGPPSDMIEAFTKKAPPSQPPRIISSVRSGSRYIITWDHVVALSNESTVTGYKVLYRPDGQHDGKLYSTHKHSIEVPIPRDGEYVVEVRAHSDGGDGVVSQVKIS
B5: tenascin receptor (protein, UniProt Q92752 32-1358)
chain: QLEVTTERVQRQSVEEEGGIANYNTSSKEQPVVFNHVYNINVPLDNLCSSGLEASAEQEVSAEDETLAEYMGQTSDHESQVTFTHRINFPKKACPCASSAQVLQELLSRIEMLEREVSVLRDQCNANCCQESAATGQLDYIPHCSGHGNFSFESCGCICNEGWFGKNCSEPYCPLGCSSRGVCVDGQCICDSEYSGDDCSELRCPTDCSSRGLCVDGECVCEEPYTGEDCRELRCPGDCSGKGRCANGTCLCEEGYVGEDCGQRQCLNACSGRGQCEEGLCVCEEGYQGPDCSAVAPPEDLRVAGISDRSIELEWDGPMAVTEYVISYQPTALGGLQLQQRVPGDWSGVTITELEPGLTYNISVYAVISNILSLPITAKVATHLSTPQGLQFKTITETTVEVQWEPFSFSFDGWEISFIPKNNEGGVIAQVPSDVTSFNQTGLKPGEEYIVNVVALKEQARSPPTSASVSTVIDGPTQILVRDVSDTVAFVEWIPPRAKVDFILLKYGLVGGEGGRTTFRLQPPLSQYSVQALRPGSRYEVSVSAVRGTNESDSATTQFTTEIDAPKNLRVGSRTATSLDLEWDNSEAEVQEYKVVYSTLAGEQYHEVLVPRGIGPTTRATLTDLVPGTEYGVGISAVMNSQQSVPATMNARTELDSPRDLMVTASSETSISLIWTKASGPIDHYRITFTPSSGIASEVTVPKDRTSYTLTDLEPGAEYIISVTAERGRQQSLESTVDAFTGFRPISHLHFSHVTSSSVNITWSDPSPPADRLILNYSPRDEEEEMMEVSLDATKRHAVLMGLQPATEYIVNLVAVHGTVTSEPIVGSITTGIDPPKDITISNVTKDSVMVSWSPPVASFDYYRVSYRPTQVGRLDSSVVPNTVTEFTITRLNPATEYEISLNSVRGREESERICTLVHTAMDNPVDLIATNITPTEALLQWKAPVGEVENYVIVLTHFAVAGETILVDGVSEEFRLVDLLPSTHYTATMYATNGPLTSGTISTNFSTLLDPPANLTASEVTRQSALISWQPPRAEIENYVLTYKSTDGSRKELIVDAEDTWIRLEGLLENTDYTVLLQAAQDTTWSSITSTAFTTGGRVFPHPQDCAQHLMNGDTLSGVYPIFLNGELSQKLQVYCDMTTDGGGWIVFQRRQNGQTDFFRKWADYRVGFGNVEDEFWLGLDNIHRITSQGRYELRVDMRDGQEAAFASYDRFSVEDSRNLYKLRIGSYNGTAGDSLSYHQGRPFSTEDRDNDVAVTNCAMSYKGAWWYKNCHRTNLNGKYGESRHSQGINWYHWKGHEFSIPFVEMKMRPYNHRLMAGRKRQSLQF
B6: peroxiredoxin 1 (protein, UniProt Q06830 1-199)
chain: MSSGNAKIGHPAPNFKATAVMPDGQFKDISLSDYKGKYVVFFFYPLDFTFVCPTEIIAFSDRAEEFKKLNCQVIGASVDSHFCHLAWVNTPKKQGGLGPMNIPLVSDPKRTIAQDYGVLKADEGISFRGLFIIDDKGILRQITVNDLPVGRSVDETLRLVQAFQFTDKHGEVCPAGWKPGSDTIKPDVQKSKEYFSKQK
B7: 6-phosphofructokinase C (protein, UniProt Q01813 1-784)
chain: MDADDSRAPKGSLRKFLEHLSGAGKAIGVLTSGGDAQGMNAAVRAVVRMGIYVGAKVYFIYEGYQGMVDGGSNIAEADWESVSSILQVGGTIIGSARCQAFRTREGRLKAACNLLQRGITNLCVIGGDGSLTGANLFRKEWSGLLEELARNGQIDKEAVQKYAYLNVVGMVGSIDNDFCGTDMTIGTDSALHRIIEVVDAIMTTAQSHQRTFVLEVMGRHCGYLALVSALACGADWVFLPESPPEEGWEEQMCVKLSENRARKKRLNIIIVAEGAIDTQNKPITSEKIKELVVTQLGYDTRVTILGHVQRGGTPSAFDRILASRMGVEAVIALLEATPDTPACVVSLNGNHAVRLPLMECVQMTQDVQKAMDERRFQDAVRLRGRSFAGNLNTYKRLAIKLPDDQIPKTNCNVAVINVGAPAAGMNAAVRSAVRVGIADGHRMLAIYDGFDGFAKGQIKEIGWTDVGGWTGQGGSILGTKRVLPGKYLEEIATQMRTHSINALLIIGGFEAYLGLLELSAAREKHEEFCVPMVMVPATVSNNVPGSDFSIGADTALNTITDTCDRIKQSASGTKRRVFIIETMGGYCGYLANMGGLAAGADAAYIFEEPFDIRDLQSNVEHLTEKMKTTIQRGLVLRNESCSENYTTDFIYQLYSEEGKGVFDCRKNVLGHMQQGGAPSPFDRNFGTKISARAMEWITAKLKEARGRGKKFTTDDSICVLGISKRNVIFQPVAELKKQTDFEHRIPKEQWWLKLRPLMKILAKYKASYDVSDSGQLEHVQPWSV

By UniProt entry, the sequences of proteins in these tests, tags left out. Residues count along the entry.
UniProt P05067, residues 672-713: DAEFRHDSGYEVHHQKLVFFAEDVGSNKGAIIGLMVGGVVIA

Biological target: amyloid β peptide, Aβ1-42 (human (endogenous in hippocampus)) (UniProt P05067)
Assay: affinity purification with mass spectrometry; pools of caudal hippocampus (3 AD, 3 NC); homogenate on Protein-G magnetic beads coated with antibody to total tau (ab80579) or to Aβ (ab11132); rinsed 3x, eluted; 1% sarcosyl-insoluble pellet resolved on SDS gel, slices digested, LC-MS/MS

| Binder | binding |
| --- | --- |
| B1 | binds |
| B2 | binds |
| B3 | binds |
| B4 | binds |
| B5 | binds |
| B6 | binds |
| B7 | binds |

Source: paper PMC5013017
